Experimental data: PubChem BioAssay AID686937 (Drosophila RNAi Screening Center, 2013)
The screen tested about 23,000 reagents; shown is a random part of those that have a named target and a result. 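Reduced-secretion tags in replicate 1 do not always agree with the z-scores; no criterion for assigning the tags was given.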 A plus sign joins genes that one reagent is predicted to hit. Further read-outs or replicates are left out here. Not given: the amount of reagent.

Purpose: 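Genes whose loss weakens secretory pathway function in fly cells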 (primary screen)
Cell system: Drosophila S2 cells expressing secreted horseradish peroxidase
Knock-down reagent: long dsRNA against Drosophila genes
Timing: about 5.5 days (5 days dsRNA, then 12 h reporter induction)
Challenge: reporter expression induced after 5 days of dsRNA, read 12 h later; inducer not stated
Detection: 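After 5 days of dsRNA and 12 h of reporter induction, medium peroxidase read by chemiluminescence and scored as per-plate z-score; higher values mean more reporter released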
Scale: z-score: higher = more reporter secreted into medium

Silencing of rtet (tetracycline resistance) came out at: z-score, replicate 1 = 0.29.
After knock-down of CG12773 the results were z-score, replicate 1 = 0.08.
CG6168 gave z-score, replicate 1 = 0.53.
With knock-down of Pstk + CG14210 + Tim9b, the screen gave z-score, replicate 1 = -2.77.
CG31792 gave z-score, replicate 1 = 0.1.
CG14882 scored z-score, replicate 1 = 0.32.
Depletion of CG32461 came out at: z-score, replicate 1 = 0.48.

Entries above whose gene name starts with C or c (5):
CG12773: z-score, replicate 1 = 0.08
CG6168: z-score, replicate 1 = 0.53
CG31792: z-score, replicate 1 = 0.1
CG14882: z-score, replicate 1 = 0.32
CG32461: z-score, replicate 1 = 0.48

Additional records follow:
Knock-down of CG14708 resulted in: z-score, replicate 1 = 0.38.
Against Oatp33Eb (Organic anion transporting polypeptide 33Eb), the entry reads z-score, replicate 1 = 0.29.
Against CG10710, the entry reads z-score, replicate 1 = 0.16.
Depletion of CG42720 (retired record) resulted in: z-score, replicate 1 = -0.18.
Against Sr-CI (Scavenger receptor class C, type I), the values are z-score, replicate 1 = 0.72.
Silencing of CG14695 resulted in: z-score, replicate 1 = 0.16.
With knock-down of CG4563 the results were z-score, replicate 1 = 0.24.
Against CG2063 the deposit lists z-score, replicate 1 = -3.1; phenotype, replicate 1 = reduced secretion.
Knock-down of Jon65Aii (Jonah 65Aii) gave: z-score, replicate 1 = 0.26.
